Assay results from the supplement of paper PMC11732987, “Enantioselective OTUD7B fragment discovery through chemoproteomics screening and high-throughput optimisation” (Communications Chemistry, 2025).
The list shows a part of the results. The data scatter; read single values as rough.

How the values were obtained:
[1] = compound: ClCC(=O)N[C@@H]1CCCc2ccccc12; assay: log2 mean competition ratio of IA-DTB cysteine labelling (DMSO/compound) (log2 ratio); higher = stronger cysteine engagement by compound; conditions: treatment time: 4 h, cell line lysate: HEK293T
Protocol: (§1)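 IA-DTB competitive cysteine chemoproteomics in HEK293T RIPA lysate. Lysates were treated with compound 29 or 30 at 50 or 200 µM for 4 h, then IA-DTB (500 µM, 1 h), trypsin-digested, NeutrAvidin-enriched and analysed by diaPASEF. Competition ratio = intensity DMSO / intensity compound (n=4 treated, n=64 DMSO); binding: mean log2 CR ≥ 1 and p ≤ 0.05 plus QC filters. Target is the cysteine site.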

[2] = compound: ClCC(=O)N[C@H]1CCCc2ccccc12; assay: as above; conditions: treatment time: 4 h, cell line lysate: HEK293T
Protocol: as §1

Target | log2 mean competition ratio ([1]; 50 µM) | log2 mean competition ratio ([1]; 200 µM) | log2 mean competition ratio ([2]; 50 µM) | log2 mean competition ratio ([2]; 200 µM)
CRELD2 C277 (UniProt Q6UXH1) | 0.431 | 0.526 | 0.56 | 0.826
DALRD3 C314 (UniProt Q5D0E6) | 0.174 | -0.122 | 0.0431 | -0.105
CTNNB1 C520 (UniProt P35222) | 0.0426 | 0.0632 | 0.0446 | 0.0626
DEAF1 C401 (UniProt O75398) | 0.117 | 0.175 | -0.242 | 0.0341
CSNK2A2 C148 (UniProt P19784) | -0.153 | -0.36 | 0.0451 | -0.288
CUL3 C522 (UniProt Q13618) | -0.023 | -0.507 | 0.053 | -0.277
CSRP2 C167 (UniProt Q16527) | 0.0273 | -0.346 | 0.458 | -0.079
DAXX C728 (UniProt Q9UER7) | -0.29 | 0.251 | 0.252 | 0.543
DCK C45 (UniProt P27707) | -0.487 | 0.0745 | 0.376 | 0.527
CYC1 C271 (UniProt P08574) | 0.0897 | -0.0892 | -0.0181 | 0.0313
DDX55 C161 (UniProt Q8NHQ9) | 0.00854 | 0.109 | -0.0899 | 0.138
CSK C14 (UniProt P41240) | 0.0604 | -0.227 | -0.435 | -0.118
CSNK2A2 C336 (UniProt P19784) | 0.0728 | -0.21 | 0.709 | 0.106
DAXX C720 (UniProt Q9UER7) | 0.2 | 0.0542 | 0.204 | 0.0456
CTTN C246 (UniProt Q14247) | 0.155 | -0.137 | -0.135 | -0.135
DDX28 C453 (UniProt Q9NUL7) | 0.151 | 0.00405 | -0.00781 | 0.153
CUL1 C170 (UniProt Q13616) | -0.233 | -0.0744 | -0.284 | -0.268
DDX10 C196 (UniProt Q13206) | -0.0731 | -0.0877 | -0.0956 | -0.143
CTIF C556 (UniProt O43310) | 0.545 | -0.0921 | 0.41 | -0.177
DDX31 C464 (UniProt Q9H8H2) | -0.000409 | -0.241 | -0.0557 | -0.245
DDX60 C1224 (UniProt Q8IY21) | -0.0116 | -0.398 | 0.174 | -0.142
CSE1L C344 (UniProt P55060) | -0.272 | -0.119 | -0.131 | 0.000759

Some entries already given, limited to log2 mean competition ratio ([2]; 200 µM) and log2 mean competition ratio ([1]; 200 µM).
Target,log2 mean competition ratio ([2]; 200 µM),log2 mean competition ratio ([1]; 200 µM)
CSNK2A2 C336 (UniProt P19784),0.106,-0.21
DAXX C720 (UniProt Q9UER7),0.0456,0.0542
CTTN C246 (UniProt Q14247),-0.135,-0.137

Next entries

Target | log2 mean competition ratio ([1]; 50 µM) | log2 mean competition ratio ([1]; 200 µM) | log2 mean competition ratio ([2]; 50 µM) | log2 mean competition ratio ([2]; 200 µM)
CUX1 C802 | -0.377 | -0.0578 | 0.227 | 0.0854
CRTAP C317 (UniProt O75718) | 0.245 | 0.0263 | 0.171 | 0.0803
DCAF6 C513 (UniProt Q58WW2) | -0.0744 | -0.106 | 0.0668 | -0.0492
CYFIP1 C993 | 0.479 | 0.138 | 0.377 | -0.17
CYLD C909 (UniProt Q9NQC7) | -0.205 | 0.297 | -0.299 | 0.243
CTSC C136 (UniProt P53634) | 0.151 | -0.12 | 0.391 | -0.0736
CUL3 C298 (UniProt Q13618) | 0.0136 | 0.0718 | -0.0182 | 0.115
CTR9 C196 (UniProt Q6PD62) | -0.0395 | 0.0321 | -0.0936 | 0.131
CTCF C577 (UniProt P49711) | 0.144 | -0.398 | -0.402 | -0.158
DARS2 C590 (UniProt Q6PI48) | 0.451 | -0.4 | 0.043 | -0.446
DCAF15 C211 (UniProt Q66K64) | -0.146 | 0.117 | 0.0787 | 0.168
DCAKD C135 (UniProt Q8WVC6) | -0.114 | 0.437 | 0.0139 | -0.109
CSE1L C842 (UniProt P55060) | 0.059 | 0.0446 | 0.0768 | 0.0915
DDX20 C181 (UniProt Q9UHI6) | 0.0506 | -0.104 | 0.155 | -0.0705
CWF19L2 C347 (UniProt Q2TBE0) | 0.311 | 0.33 | 0.0242 | 0.281
DDX46 C377 | 0.323 | 0.153 | -0.0311 | 0.0299
DBNL C127 (UniProt Q9UJU6) | -0.246 | -0.178 | 0.0512 | -0.0739
CZIB C102 (UniProt Q9NWV4) | -0.148 | -0.258 | -0.654 | -0.135
CRBN C219 (UniProt Q96SW2) | 0.0507 | 0.15 | -0.00119 | 0.454
CUL2 C266 (UniProt Q13617) | -0.0943 | 0.049 | -0.145 | 0.0605
CUL7 C1569 (UniProt Q14999) | 0.109 | -0.0961 | -0.228 | 0.0123
DDX51 C187 (UniProt Q8N8A6) | 0.245 | 0.0517 | 0.38 | 0.101
